From publication PMC10723533
These are yes or no findings as the source states them, for the method shown. Binding seen in cells or lysates may run through a third protein. A yes stands for co-enrichment or nearness to the bait. Other partners may have been found. For some assays here: Where a sequence is shown, tags or fusion partners need not be part of it.

What was measured:
[1] = biological target: T1, Paa1-L-YFP (S. pombe) (UniProt Q9UT08); test: affinity purification with mass spectrometry; YFP-tagged bait (Paa1-L-YFP or Pab1-L-YFP) on GFP-Trap beads; cells 1 hour in EMM2-N, crosslinked with 1% formaldehyde for 10 min at 25 °C; lysis buffer 25 mM Tris HCl pH 7.5, 150 mM NaCl, 0.5% SDS (diluted to 0.1%), 1% NP40; washes with 500 mM NaCl
T1 sequence: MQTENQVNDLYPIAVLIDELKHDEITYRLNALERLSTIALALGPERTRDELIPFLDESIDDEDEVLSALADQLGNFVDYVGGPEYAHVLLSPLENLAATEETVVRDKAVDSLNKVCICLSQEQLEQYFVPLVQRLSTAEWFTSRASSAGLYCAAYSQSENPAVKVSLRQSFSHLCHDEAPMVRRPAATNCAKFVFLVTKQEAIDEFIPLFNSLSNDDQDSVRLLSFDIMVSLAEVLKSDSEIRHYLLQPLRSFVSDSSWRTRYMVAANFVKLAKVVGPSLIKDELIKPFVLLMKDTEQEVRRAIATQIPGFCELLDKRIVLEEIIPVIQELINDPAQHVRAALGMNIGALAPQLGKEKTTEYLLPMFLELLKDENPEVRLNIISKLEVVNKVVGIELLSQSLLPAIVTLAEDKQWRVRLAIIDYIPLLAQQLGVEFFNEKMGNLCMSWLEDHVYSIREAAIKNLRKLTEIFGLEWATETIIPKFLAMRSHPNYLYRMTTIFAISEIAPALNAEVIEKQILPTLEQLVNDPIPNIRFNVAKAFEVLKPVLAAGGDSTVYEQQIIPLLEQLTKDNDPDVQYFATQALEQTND

[2] = biological target: Pab1-L-YFP (S. pombe); test: as above

B1: Trm112 (protein, UniProt Q09723 1-126)
chain: MKLLTANFLNCSNKKCTSSPEAFPLDVVDAKLAIQQLELKPEFLIGIMPRIDWNALLKTTRQLGNYSLPDEKPDLVDDSDEVLLKSLHNVLLETEITEGKMVCGNCGHVYPIFEGIPNMLLSESEI
binding [1]: binds | binding [2]: binds
